Results published in PubChem BioAssay AID248 (DTP/NCI, 2004).
The list shows only some results of the screen, not a fair sample: it gathers tests that were run many times, whatever their T/C, doses with no T/C, and many T/C values between a quarter and a half above the control. Further doses and runs are listed elsewhere. T/C is the treated group as % of the vehicle group. Some doses have a count of surviving animals in place of a T/C: the source files T/C as zero there, which appears to mark a toxic dose or a test without result, not a measured value. Some survivor counts are full or nearly so, which does not show that the dose was tolerated: survival well below the control is almost never listed, so the zero probably covers shortened survival too. Counts of survivors are from the toxicity check (mostly the fifth day) where no day follows; animals may have died later. Schedule codes are those of the source, read here as Q, the interval in days (D) or hours (H), X, the number of doses. Some schedules carry Z or #; the key to these is not given. Signs of the kind (2×) give the number of equal values in this list. Some doses were run more than once; their values stand side by side, smallest first.

Test system: L1210 leukemia ip in BDF1 mice, survival T/C
Assay: NCI In Vivo Anticancer Drug Screen. Data for tumor model L1210 Leukemia (intraperitoneal) in B6D2F1 (BDF1) mice
Conditions: T/C endpoint: mean survival time, higher T/C = longer survival
[1] = dose: 300.0 mg/kg/injection, schedule: Q01DX001 (ip), vehicle: saline
[2] = dose: 400.0 mg/kg/injection, schedule: Q04DX003 (ip), vehicle: saline with Tween-80
[3] = dose: 400.0 mg/kg/injection, schedule: Q01DX001 (ip), vehicle: saline
[4] = dose: 400.0 mg/kg/injection, schedule: Q01DX009 (ip), vehicle: Klucel (hydroxypropylcellulose) (HPC)
[5] = dose: 200.0 mg/kg/injection, schedule: Q01DX009 (ip), vehicle: other
[6] = dose: 25.0 mg/kg/injection, schedule: Q04DX003 (ip), vehicle: saline with Tween-80
[7] = dose: 50.0 mg/kg/injection, schedule: Q04DX003 (ip), vehicle: saline with Tween-80
[8] = dose: 100.0 mg/kg/injection, schedule: Q04DX003 (ip), vehicle: saline with Tween-80
[9] = dose: 200.0 mg/kg/injection, schedule: Q04DX003 (ip), vehicle: saline with Tween-80
[10] = dose: 400.0 mg/kg/injection, schedule: Q01DX009 (ip), vehicle: saline with Tween-80
[11] = dose: 400.0 mg/kg/injection, schedule: Q04DX003 (ip), vehicle: Klucel (hydroxypropylcellulose) (HPC)
[12] = dose: 100.0 mg/kg/injection, schedule: Q04DX003 (ip), vehicle: Klucel (hydroxypropylcellulose) (HPC)
[13] = dose: 200.0 mg/kg/injection, schedule: Q04DX003 (ip), vehicle: Klucel (hydroxypropylcellulose) (HPC)

With `COC1CCCNC1CC(=O)Cn1cnc2cc3c(cc2c1=O)OCO3` (centres undefined) the survivor count [1] was 2 of 6.
With `CC(C)C(NC(=O)CNC(=O)CCl)C(=O)O` (centres undefined) the survivor count [2] was 5 of 6.
`CCOC(=O)/C(C#N)=C(\C)CC(C)C` was tested, and the survivor count (dose: 200.0 mg/kg/injection, schedule: Q01DX001 (ip), vehicle: saline) was 1 of 4 and the survivor count [3] was 0 of 4.
`O=C(O)C1c2ccccc2Cc2ccccc21` was tested, and the survivor count [4] was 2 of 6.
`N#Cc1ccc(OCc2nc(N)nc(N)c2-c2ccc(Cl)cc2)cc1` was tested, and the survivor count [2] was 3 of 6.
With `Clc1ccc2c(c1)Cc1cc(N=Cc3ccccc3Cl)ccc1-2` the survivor count (dose: 100.0 mg/kg/injection, schedule: Q01DX001 (ip), vehicle: acetone) was 6 of 6, the survivor count (dose: 100.0 mg/kg/injection, schedule: Q01DX001 (ip), vehicle: saline) was 6 of 6 and the survivor count (dose: 200.0 mg/kg/injection, schedule: Q01DX001 (ip), vehicle: acetone) was 6 of 6. For the same molecule, the survivor count (dose: 400.0 mg/kg/injection, schedule: Q01DX001 (ip), vehicle: acetone) was 6 of 6, the survivor count [3] was 3 of 6 and the survivor count (dose: 510.0 mg/kg/injection, schedule: Q04DX003 (ip), vehicle: saline with Tween-80) was 2 of 6. For the same molecule, the survivor count (dose: 770.0 mg/kg/injection, schedule: Q04DX003 (ip), vehicle: saline with Tween-80) was 1 of 6.
With `Cc1ccc2[nH]c3c(c2c1)C[P+](Cc1cccc2ccccc12)(c1ccccc1)CC3` (centres undefined) the survivor count (dose: 400.0 mg/kg/injection, schedule: Q01DX001 (ip), vehicle: Klucel (hydroxypropylcellulose) (HPC)) was 6 of 6.
`CN(C)CCOC(=O)N1c2ccccc2C(C)(C)c2ccccc21` was tested, and the survivor count (dose: 200.0 mg/kg/injection, schedule: Q01DX001 (ip), vehicle: water) was 0 of 4 and the survivor count (dose: 400.0 mg/kg/injection, schedule: Q01DX001 (ip), vehicle: water) was 0 of 4.
With `COC(=O)[CH](C[N+](=O)[O-])[Hg][Cl]` (centres undefined) the survivor count (dose: 12.5 mg/kg/injection, schedule: Q01DX009 (ip), vehicle: saline) was 3 of 6.
For `O=C(Nc1ccc(/C=C/c2ccc(NC(=O)Nc3cccc(C4=NCCN4)c3)cc2)cc1)Nc1cccc(C2=NCCN2)c1`, the survivor count (dose: 30.0 mg/kg/injection, schedule: Q01DX Z (ip), vehicle: carboxymethylcellulose (CMC)) was 6 of 6.
`CCCCCC(CN(C)C)C(=O)/C=C/c1ccccc1Cl` (centres undefined) was tested, and the survivor count (dose: 100.0 mg/kg/injection, schedule: Q01DX009 (ip), vehicle: other) was 5 of 6, the survivor count [5] was 0 of 6 and the survivor count (dose: 400.0 mg/kg/injection, schedule: Q01DX009 (ip), vehicle: other) was 0 of 6.
For `CCOC(=O)C1(C(=O)OCC)C2CC(C)=C(C)CC21` (centres undefined), the survivor count (dose: 25.0 mg/kg/injection, schedule: Q01DX009 (ip), vehicle: acetone) was 6 of 6.
In the case of `O=[As](O)(CC(O)COc1ccccc1)c1cccc(Cl)c1` (centres undefined), the survivor count [6] is reported as 6 of 6, the survivor count [7] is reported as 6 of 6 and the survivor count [8] is reported as 0 of 6 (2×). For the same molecule, the survivor count [9] was 0 of 6 and the survivor count [2] was 0 of 6.
`Oc1cc(O)c2c(c1)OC(c1ccc(O)c(O)c1)C(OC1(c3cc(O)c(O)c(O)c3)Oc3cc(O)cc(O)c3C(O)C1O)C2` (centres undefined) was tested, and the survivor count [10] was 2 of 6.
`O=NC1C(Cl)C2CC1C1CCCC21` (centres undefined) was tested, and the survivor count (dose: 100.0 mg/kg/injection, schedule: Q01DX009 (ip), vehicle: Klucel (hydroxypropylcellulose) (HPC)) was 6 of 6.
For `NCC(=O)c1cccc2ccc[n+]([O-])c12`, the survivor count (dose: 200.0 mg/kg/injection, schedule: Q01DX009 (ip), vehicle: Klucel (hydroxypropylcellulose) (HPC)) was 3 of 6 and the survivor count [11] was 0 of 6.
For `CC(=O)N(c1ccncc1)c1ccc([N+](=O)[O-])cc1`, the survivor count [10] was 0 of 3 and 0 of 6 and the survivor count (dose: 400.0 mg/kg/injection, schedule: Q04DX002 (ip), vehicle: saline with Tween-80) was 0 of 3.
With `[CH3][Sb]([CH3])[S]C1OC(CO)C(O)C(O)C1O` (centres undefined) the survivor count [12] was 0 of 3, the survivor count [13] was 0 of 3 and the survivor count [11] was 0 of 3.
`CC(=O)[O][Sn]([CH3])([CH3])[CH3]` was tested, and the survivor count (dose: 1.5 mg/kg/injection, schedule: Q01DX009 (ip), vehicle: Klucel (hydroxypropylcellulose) (HPC)) was 0 of 6, the survivor count (dose: 3.0 mg/kg/injection, schedule: Q01DX009 (ip), vehicle: Klucel (hydroxypropylcellulose) (HPC)) was 6 of 6 and the survivor count (dose: 6.0 mg/kg/injection, schedule: Q01DX009 (ip), vehicle: Klucel (hydroxypropylcellulose) (HPC)) was 0 of 6. For the same molecule, the survivor count (dose: 12.5 mg/kg/injection, schedule: Q01DX009 (ip), vehicle: Klucel (hydroxypropylcellulose) (HPC)) was 0 of 6, the survivor count (dose: 25.0 mg/kg/injection, schedule: Q01DX009 (ip), vehicle: Klucel (hydroxypropylcellulose) (HPC)) was 0 of 6 and the survivor count (dose: 50.0 mg/kg/injection, schedule: Q01DX009 (ip), vehicle: Klucel (hydroxypropylcellulose) (HPC)) was 0 of 6. The survivor count (dose: 75.0 mg/kg/injection, schedule: Q01DX009 (ip), vehicle: Klucel (hydroxypropylcellulose) (HPC)) was 0 of 6, the survivor count (dose: 150.0 mg/kg/injection, schedule: Q01DX009 (ip), vehicle: Klucel (hydroxypropylcellulose) (HPC)) was 0 of 6 and the survivor count (dose: 300.0 mg/kg/injection, schedule: Q01DX009 (ip), vehicle: Klucel (hydroxypropylcellulose) (HPC)) was 0 of 6.
`CN1CCOC1=Nc1cccc2c1CCCC2` was tested, and the survivor count [5] was 6 of 6.
For `O=S(O)c1cc(Br)ccc1Br`, the survivor count [4] was 2 of 6.
In the case of `C[N+]1(C2CCC3CCCC2C3=O)CCCC1` (centres undefined), the survivor count [1] is reported as 1 of 6.
For `CC(C)c1ccc(/C(=N\N=C(N)N)C2CC2)cc1`, the survivor count (dose: 480.0 mg/kg/injection, schedule: Q01DX Z (ip), vehicle: carboxymethylcellulose (CMC)) was 0 of 6.
With `CC(=O)OC(C#N)c1ccco1` (centres undefined) the survivor count [6] was 0 of 6, the survivor count [7] was 0 of 6 and the survivor count [8] was 0 of 6. The survivor count [9] was 0 of 6 and the survivor count [2] was 0 of 6.
With `CSCCOC(=O)C1C2CCC(O2)C1C(=O)O` (centres undefined) the survivor count (dose: 25.0 mg/kg/injection, schedule: Q04DX003 (ip), vehicle: Klucel (hydroxypropylcellulose) (HPC)) was 3 of 6, the survivor count (dose: 50.0 mg/kg/injection, schedule: Q04DX003 (ip), vehicle: Klucel (hydroxypropylcellulose) (HPC)) was 0 of 6 and the survivor count [12] was 0 of 6. The survivor count [13] was 0 of 6 and the survivor count [11] was 0 of 6.
